The values below come from US20220119534A1.

Chains of the proteins cited; added tags and fusions are not shown. Lines headed by an entry give the natural chain unless they say otherwise; changes in a name come on top.
UniProt Q5QGZ9: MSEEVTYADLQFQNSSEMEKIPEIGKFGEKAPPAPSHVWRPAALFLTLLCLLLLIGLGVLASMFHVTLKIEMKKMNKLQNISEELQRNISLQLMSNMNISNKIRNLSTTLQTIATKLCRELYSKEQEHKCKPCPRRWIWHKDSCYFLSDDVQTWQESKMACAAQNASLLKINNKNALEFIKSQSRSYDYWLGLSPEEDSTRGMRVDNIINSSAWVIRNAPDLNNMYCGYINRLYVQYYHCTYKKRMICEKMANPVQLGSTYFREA

These are yes or no findings as the source states them, for the method shown. Some results given as binding are weak or reduced against the parent protein; the word gives no strength.

In assay [1] the target is recombinant cynomolgus CLEC12A-His (cynomolgus monkey). Description: SPR.
The target is the same in assay [2]. Description: SPR, purified murine subclone mAb and Cyno CLEC12A-His. For orientation: SPR reads the build-up and loss of mass on a sensor chip optically.
In assay [3] the target is human CLEC12A expressed on cells (human) (UniProt Q5QGZ9). The assay is described as follows: flow cytometry. A general note: Flow cytometry measures light scatter and fluorescence of single cells or particles in a stream.
Assay [4] shares this target. Description: flow cytometry on PL-21 cells, fold over background.
For assay [5] the target is unchanged. Description: flow cytometry, Ba/F3-hCLEC12A, HL60, PL21.
Assay [6] shares this target. Description: flow cytometry on Ba/F3-hCLEC12A cells, fold over background.
The target is the same in assay [7]. Description: flow cytometry on HL-60 cells, fold over background.

B1: 15A10.G8 (antibody, V domains shown)
VH: EVQLQESGAELVRSGASIKLSCAASAFNIKDYFIHWVRQRPDQGLEWIGWIDPENDDTEYAPKFQDKATMTADTSSNTAYLQLSSLTSADTAVYYCNALWSRGGYFDYWGQGTTLTVSS
VL: EVLLTQSPAIIAASPGEKVTITCSARSSVSYMSWYQQKPGSSPKIWIYGISKLASGVPARFSGSGSGTYFSFTINNLEAEDVATYYCQQRSYYPFTFGSGTKLEIK
With B1, the binding result in assay [1] and in assay [2] was “binds” throughout.

B2: hcFAE-A49.h6E7 (bispecific antibody, V domains shown)
VH 1: EVQLVQSGAEVKKPGASVKVSCKASGYSFTDYYMHWVRQAPGQGLEWIGRINPYNGAAFYSQNFKDRVTLTVDTSTSTAYLELSSLRSEDTAVYYCAIERGADLEGYAMDYWGQGTLVTVSS
VL 1: DIQMTQSPSSLSASVGDRVTITCRASQSVSTSSYNYMHWYQQKPGKPPKLLIKYASNLESGVPSRFSGSGSGTDFTLTISSLQPEDFATYYCQHSWEIPLTFGQGTKVEIK
VH 2: EVQLVESGGGLVKPGGSLRLSCAASGFTFSSYSMNWVRQAPGKGLEWVSSISSSSSYIYYADSVKGRFTISRDNAKNSLYLQMNSLRAEDTAVYYCARGAPMGAAAGWFDPWGQGTLVTVSS
VL 2: DIQMTQSPSSVSASVGDRVTITCRASQGISSWLAWYQQKPGKAPKLLIYAASSLQSGVPSRFSGSGSGTDFTLTISSLQPEDFATYYCQQGVSFPRTFGGGTKVEIK
B2: the binding result in assay [3] is “binds”.

B3: AB0306 (antibody, IgG1, V domains shown)
VH: EVQLVESGGGVVQPGGSLRLSCAASGFTFNAFGMHWVRQAPGKGLEWVAFISSGSTSIYYANTVKGRFTISRDNSKNTLYLQMNSLRAEDTAVYYCARDGYPTGGAMDYWGQGTSVTVSS
VL: DIQMTQSPSSLSASVGDRVTITCKASQDIYNYLSWFQQKPGKAPKPLIYRANILVSGVPSRFSGSGSGQDYTFTISSLQPEDIATYYCLQFDAFPFTFGSGTKLEIK
Consider B3, for which the binding entry in assay [4], in assay [5], in assay [6] and in assay [7] was “binds” throughout.
